{"source": "PubChem BioAssay AID504793, Drosophila RNAi Screening Center, 2011", "assay": "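Knock-downs allowing continued mitosis even though DNA is damaged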 (primary screen)", "cell system": "Drosophila S2R+ cells", "reagent": "long dsRNA against Drosophila genes, about 0.25 µg dsRNA per well", "time to read-out": "4 days of dsRNA, then 4 hours of drug before read-out", "challenge": "doxorubicin 0.5 µM for 4 hours to cause double-strand breaks, in cells also given a low, harmless dose of dsRNA against nbs to sensitise the assay", "measurement": "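Per-well count of mitotic cells stained for phospho-histone H3 after doxorubicin exposure, used as mitotic index; counts are raw and not normalised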", "direction": "mitotic cells: higher = more cells in mitosis, weaker G2 arrest", "call rule": "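Genes are called active only when high mitotic counts were reproduced with independent dsRNAs and mitosis was checked for delay without damage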", "calls": "active = confirmed in follow-up tests; inactive = not confirmed", "note": "In all, the deposit lists about 23,000 reagents; shown is a random part of those that have a named target and a result. Over the whole deposit, 62 (0.27%) were called active. 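Calls come from follow-up tests whose scores are not deposited, so confirmed genes may have low counts here; counts are not normalised per plate.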 The raw values are shown without normalisation. A number with no mark means an inactive call. Reagents against one gene are numbered here."}
{"target": "Edg84A (Ecdysone-dependent gene 84A)", "reagent": 1, "mitotic cells, replicate 1": 6}
{"target": "Lcp65Ac", "reagent": 1, "mitotic cells, replicate 1": 3}
{"target": "Lcp65Ac", "reagent": 2, "mitotic cells, replicate 1": 3}
{"target": "Acbp2 (Acyl-CoA binding protein 2)", "reagent": 1, "mitotic cells, replicate 1": 8}
{"target": "Acbp2 (Acyl-CoA binding protein 2)", "reagent": 2, "mitotic cells, replicate 1": 12}
{"target": "clos (closca)", "reagent": 1, "mitotic cells, replicate 1": 16}
{"target": "clos (closca)", "reagent": 2, "mitotic cells, replicate 1": 5}
{"target": "clos (closca)", "reagent": 3, "mitotic cells, replicate 1": 5}
{"target": "clos (closca)", "reagent": 4, "mitotic cells, replicate 1": 6}
{"target": "clos (closca)", "reagent": 5, "mitotic cells, replicate 1": 13}
{"target": "CG10650", "reagent": 1, "mitotic cells, replicate 1": 3}
{"target": "CG30177", "reagent": 1, "mitotic cells, replicate 1": 4}
{"target": "polyph (polyphemus)", "reagent": 1, "mitotic cells, replicate 1": 5}
{"target": "glob2 (globin 2)", "reagent": 1, "mitotic cells, replicate 1": 2}
{"target": "Cby (Chibby)", "reagent": 1, "mitotic cells, replicate 1": 8}
{"target": "mRpL39 (mitochondrial ribosomal protein L39)", "reagent": 1, "mitotic cells, replicate 1": 4}
{"target": "CG14069", "reagent": 1, "mitotic cells, replicate 1": 7}
{"target": "Noc3 (Nucleolar complex protein 3)", "reagent": 1, "mitotic cells, replicate 1": 8}
{"target": "Schip1 (Schwannomin interacting protein 1)", "reagent": 1, "mitotic cells, replicate 1": 11}
{"target": "Schip1 (Schwannomin interacting protein 1)", "reagent": 2, "mitotic cells, replicate 1": 3}
{"target": "dpr5 (defective proboscis extension response 5)", "reagent": 1, "mitotic cells, replicate 1": 8}
{"target": "dpr5 (defective proboscis extension response 5)", "reagent": 2, "mitotic cells, replicate 1": 9}
{"target": "CG4271", "reagent": 1, "mitotic cells, replicate 1": 4}

Individual results from the list.
For “mitotic cells, replicate 1”, CG4271 reads 4
For “mitotic cells, replicate 1”, clos (closca) #1 reads 16
